Screen size: about 200,000 compounds; about 25 (0.01%) were called active. This list was built around the results that the source calls inconclusive (neither active nor inactive); the mix of calls is not that of the screen. The call rests on the fitted dose curve; in most records, active means well fitted inhibition curve with a large enough effect in the signal ratio, with a control signal flat (not every such curve was filed as active); inconclusive means small, poorly fitted or top-dose-only effect, or effect the other way, or a change in a side signal; inactive means flat fitted curve, though single readings scatter; the % refers to the signal ratio. A potency beside an inconclusive call is a rough fit, not a confirmed value.
Experiment: qHTS Assay for Modulators of Lamin A Splicing
Conditions: HeLa LMNA splicing GFP/RFP minigene ratio, 48 h; ratio change, negative = inhibition: at 46.1 µM (top of the series) unless noted
Outline: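 Read-out is the ratio of GFP to DsRed2 object intensity, acquired by 488 nm laser-scanning cytometry on HeLa lamin A-EGFP minigene reporter cells. Compound incubation 48 hrs at 37 °C in Opti-MEM with 2% FBS; DMSO 0.5% final.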
On the % scale 0 is the no-effect control and ±100 the full control effect; potency means the concentration at half of the fitted maximal effect.

Q: With `CCOC(=O)c1c(NC(=O)COC(=O)C2CC2C)sc(C)c1C` (stereo not drawn) as the compound, how does the ratio change, negative = inhibition read?
A: inconclusive: 12.4% [at 46 µM]

Q: For `O=C(CN1C(=O)CCc2cc(Br)ccc21)Nc1ccc(OC(F)(F)F)cc1`, which ratio change, negative = inhibition is on record?
A: inconclusive: -10.6% [at 46 µM]

Q: Which ratio change, negative = inhibition does the source give for `N#Cc1nc(-c2ccco2)oc1N1CCCC1` here?
A: inactive

Q: For `CSc1ccccc1OC1CCN(Cc2ccccc2)CC1`, which ratio change, negative = inhibition is on record?
A: inconclusive: -18.7%

Q: With `COc1ccc(CCNC(=O)CN2C(=O)c3ccccc3S2(=O)=O)cc1` as the compound, how does the ratio change, negative = inhibition read?
A: inactive

Q: With `Cc1[nH]cnc1CSCc1ccc(Cl)cc1` as the compound, how does the ratio change, negative = inhibition read?
A: inconclusive: -26.6%

Q: Which ratio change, negative = inhibition does the source give for `COc1ccc(Cc2nc(-c3ccc(Br)cc3)no2)cc1` here?
A: inconclusive: -23%

Q: For `Cc1cccnc1CN1CCN(Cc2nc(C(c3ccccc3)c3ccccc3)no2)CC1`, which ratio change, negative = inhibition is on record?
A: inconclusive: -32.8% [at 46 µM]

Q: Which ratio change, negative = inhibition does the source give for `CC(=O)c1c(C)[nH]c(C(=O)N2c3ccccc3CC2C)c1C` (stereo not drawn) here?
A: inactive

Q: Which ratio change, negative = inhibition does the source give for `CCc1c(C(=O)N/N=C/c2ccsc2)csc1C` here?
A: inconclusive: -2.21%

Q: Which ratio change, negative = inhibition does the source give for `COc1ccc(-n2c(C)nc3c(cnn3-c3ccc(C)cc3)c2=O)cc1` here?
A: inactive: 14.4% [at 9.22 µM]

Q: For `COc1ccc(Cl)c2sc(NC(=O)c3ccc(S(=O)(=O)N4CCCC4)cc3)nc12`, which ratio change, negative = inhibition is on record?
A: inconclusive: 18.4% [at 46 µM]

Q: Which ratio change, negative = inhibition does the source give for `O=C(CCCn1c(=O)c2ccccc2n(Cc2ccccc2)c1=O)NCc1ccco1` here?
A: inactive

Q: For `CN1C(=O)CC(Nc2cccc3cccc(N)c23)C1=O` (stereo not drawn), which ratio change, negative = inhibition is on record?
A: inconclusive: -31.6% [at 46 µM]

Q: For `Cc1ccc(-n2ncc3c(Nc4ccc5c(c4)OCCO5)ncnc32)cc1Cl`, which Potency is on record?
A: inconclusive: 1.26 µM [inhibitor, partial curve, poor fit]

Q: For `COc1nc(-c2ccccc2)ccc1-c1noc(-c2ccccc2)n1`, which ratio change, negative = inhibition is on record?
A: inactive

Q: For `COc1cc(OC)cc(C(=O)Nc2ccc3c(c2)CCCN3C(=O)c2cccs2)c1`, which Potency is on record?
A: inconclusive: 8.91 µM [inhibitor, partial curve]

Q: With `CC(=O)NCC1CCCN(Cc2cn(-c3ccccc3)nc2-c2ccc3c(c2)OCO3)C1` (stereo not drawn) as the compound, how does the ratio change, negative = inhibition read?
A: inconclusive: 4.38% [at 46 µM]

Q: Which ratio change, negative = inhibition does the source give for `CCOc1ccc(C2c3cc(OC)c(OC)cc3CC(=O)N2c2ccc(OC)cc2)cc1` (stereo not drawn) here?
A: inconclusive: -14.5%

Q: Which ratio change, negative = inhibition does the source give for `CNC(=O)c1ccc(NC(=O)c2cccc(C(F)(F)F)c2)cc1` here?
A: inconclusive: -14.3% [at 46 µM]

Q: With `COCCNC(=S)N/N=C(\C)CCc1ccc2c(c1)OCO2` as the compound, how does the ratio change, negative = inhibition read?
A: inconclusive: 142% [at 46 µM]

Q: With `CC/C(=C(\c1ccccc1)c1ccc(OCCN(C)C)cc1)c1ccccc1` as the compound, how does the ratio change, negative = inhibition read?
A: inconclusive: 115%

Q: Which ratio change, negative = inhibition does the source give for `O=C(Nc1cccc(Br)c1)c1cc(S(=O)(=O)N2CCCCC2)c[nH]1` here?
A: inactive

Source: PubChem BioAssay AID1487 (National Center for Advancing Translational Sciences (NCATS), 2009)
